In publication PMC3931761:
These are yes or no findings as the source states them, for the method shown. In cells and extracts the contact can be indirect. Some entries that bind do so weakly or less than the wild type.

Chains of the proteins cited; added tags and fusions are not shown.
UniProt P39688: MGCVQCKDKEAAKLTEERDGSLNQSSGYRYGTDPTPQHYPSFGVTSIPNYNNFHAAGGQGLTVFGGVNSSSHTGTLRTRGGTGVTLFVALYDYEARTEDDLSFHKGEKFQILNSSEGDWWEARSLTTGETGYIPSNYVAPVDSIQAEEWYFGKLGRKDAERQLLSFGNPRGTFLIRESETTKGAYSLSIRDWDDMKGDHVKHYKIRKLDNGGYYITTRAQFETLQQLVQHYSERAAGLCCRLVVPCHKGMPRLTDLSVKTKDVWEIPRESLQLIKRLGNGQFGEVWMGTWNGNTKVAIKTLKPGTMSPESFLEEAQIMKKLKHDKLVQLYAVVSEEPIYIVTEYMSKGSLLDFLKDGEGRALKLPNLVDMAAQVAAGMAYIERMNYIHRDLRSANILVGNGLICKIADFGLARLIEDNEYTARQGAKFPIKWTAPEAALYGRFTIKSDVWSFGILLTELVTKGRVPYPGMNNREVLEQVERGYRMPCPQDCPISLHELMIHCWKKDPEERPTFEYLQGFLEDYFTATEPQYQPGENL

Biological target: Fyn kinase (mouse (endogenous in Oli-neu)) (UniProt P39688)
Assay: co-IP; Fyn immunoprecipitated from precleared Oli-neu lysates with rabbit anti-Fyn antibody bound to Protein A-Sepharose, 4 hours at 4°C; lysis buffer 50 mM Tris pH 7.4, 150 mM NaCl, 1 mM EDTA, 1% Nonidet P-40, 0.25% sodium deoxycholate; Western blot of the precipitate

- binding: binds
B1: p130Cas (crk-associated substrate) (protein, UniProt Q61140 1-874)
chain: MTVPNVLAKALYDNVAESPDELSFRKGDIMTVLERDTQGLDGWWLCSLHGRQGIVPGNRLKILVGMYDKKPVGPGPGPPATPPQPQPSLPQGVHAPVPPASQYSPMLPTAYQPQSDNVYLVPTPSKTQQGLYQAPGPNPQFQSPPAKQTSTFSKQTPHHSFPSPATDLYQVPPGPGSPAQDIYQVPPSAGIGHDIYQVPPSLDTRGWEGTKPPAKVVVPTRVGQGYVYEAAQTEQDEYDTPRHLLAPGPQDIYDVPPVRGLLPNQYGQEVYDTPPMAVKGPNGRDPLLDVYDVPPSVEKGLLSSSHHSVYDVPPSVSKDVPDGPLLREETYDVPPAFAKPKPFDPTRHPLILAAPPPDSPAAEDVYDVPPPAPDLYDVPPGLRRPGPGTLYDVPRERVLPPEVADGSVVDDGVYAVPPPAEREAPTDGKRLSASSTGSTRSSQSASSLEVVVPGREPLELEVAVESLARLQQGVSTTVAHLLDLVGSASGPGGWRGTSEPQEPPAQDLKAAVAAVHGAVHELLEFARGAVSNATHTSDRTLHAKLSRQLQKMEDVYQTLVVHGQVLDSGRGSPGFTPEDLDRLVACSRAVPEDAKQLASFLHGNASLLFRRTKAPGPGPEGSSSLHPNPTDKASSIQSRPLPSPPKFTSQDSPDGQYENSEGGWMEDYDYVHLQGKEEFEKTQKELLERGNIMRQGKGQLELQQLKQFERLEQEVSRPIDHDLANWTPAQPLVPGRTGGLGPSDRQLLLFYLEQCEANLTTLTDAVDAFFTAVATNQPPKIFVAHSKFVILSAHKLVFIGDTLSRQAKAADVRSQVTHYSNLLCDLLRGIVATTKAAALQYPSPSAAQDMVDRVKELGHSTQQFRRVLGQLAAA
